# In paper PMC4628314:
# No constants are given. Whether binding was seen depends on the method and setting. Binding can be weak; no strength is given.
# T1: OsMPK3 (Oryza sativa) (UniProt A2XFC8)
# T1 sequence: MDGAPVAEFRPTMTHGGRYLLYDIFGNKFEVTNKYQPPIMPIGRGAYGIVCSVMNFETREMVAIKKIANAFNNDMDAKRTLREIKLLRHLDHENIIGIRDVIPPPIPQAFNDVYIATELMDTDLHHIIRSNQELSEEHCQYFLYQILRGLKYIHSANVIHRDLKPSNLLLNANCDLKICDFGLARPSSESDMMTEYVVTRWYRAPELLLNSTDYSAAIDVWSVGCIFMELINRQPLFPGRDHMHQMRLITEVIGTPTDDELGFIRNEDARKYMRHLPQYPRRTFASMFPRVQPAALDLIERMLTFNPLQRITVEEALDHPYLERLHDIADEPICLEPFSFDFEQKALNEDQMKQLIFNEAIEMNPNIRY
# Experiments:
# [1] = target: T1, OsMPK3 (Oryza sativa); assay: two-hybrid; Matchmaker yeast two-hybrid, yeast AH109 co-transformed with pGADT7 (AD) and pGBKT7 (BD) constructs; colonies from SD/-Leu/-Trp streaked on SD/-Ade/-His/-Leu/-Trp (DDO); both orientations (swapping); blank vectors as controls
# [2] = target: OsAux/LAX1 (Oryza sativa auxin influx carrier) (Oryza sativa); assay: as above
Molecule,binding [1],binding [2]
OsAux/LAX1 (Oryza sativa auxin influx carrier),binds,
"OsMPK3 (enzyme, UniProt A2XFC8 1-369) MDGAPVAEFRPTMTHGGRYLLYDIFGNKFEVTNKYQPPIMPIGRGAYGIVCSVMNFETREMVAIKKIANAFNNDMDAKRTLREIKLLRHLDHENIIGIRDVIPPPIPQAFNDVYIATELMDTDLHHIIRSNQELSEEHCQYFLYQILRGLKYIHSANVIHRDLKPSNLLLNANCDLKICDFGLARPSSESDMMTEYVVTRWYRAPELLLNSTDYSAAIDVWSVGCIFMELINRQPLFPGRDHMHQMRLITEVIGTPTDDELGFIRNEDARKYMRHLPQYPRRTFASMFPRVQPAALDLIERMLTFNPLQRITVEEALDHPYLERLHDIADEPICLEPFSFDFEQKALNEDQMKQLIFNEAIEMNPNIRY",,binds
